Results on two substances are retold here after patent US20150366949A1.

The chains behind the UniProt entries cited, without tags or fusion partners. Residues count along the entry.
UniProt Q6P9K8, residues 476-609: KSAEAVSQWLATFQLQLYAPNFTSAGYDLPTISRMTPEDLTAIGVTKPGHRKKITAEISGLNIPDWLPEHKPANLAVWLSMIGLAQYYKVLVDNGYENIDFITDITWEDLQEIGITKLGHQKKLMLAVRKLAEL
UniProt Q8VHK1, residues 488-621: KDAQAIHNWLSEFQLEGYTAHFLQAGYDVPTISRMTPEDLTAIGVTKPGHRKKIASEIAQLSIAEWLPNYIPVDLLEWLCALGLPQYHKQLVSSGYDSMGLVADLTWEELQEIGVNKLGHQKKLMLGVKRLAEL

No constants are given. Whether binding was seen depends on the method and setting. Some entries that bind do so weakly or less than the wild type.

One test has as its target T1, mLAR (mouse) (UniProt A2A8L5).
T1 sequence (looked up): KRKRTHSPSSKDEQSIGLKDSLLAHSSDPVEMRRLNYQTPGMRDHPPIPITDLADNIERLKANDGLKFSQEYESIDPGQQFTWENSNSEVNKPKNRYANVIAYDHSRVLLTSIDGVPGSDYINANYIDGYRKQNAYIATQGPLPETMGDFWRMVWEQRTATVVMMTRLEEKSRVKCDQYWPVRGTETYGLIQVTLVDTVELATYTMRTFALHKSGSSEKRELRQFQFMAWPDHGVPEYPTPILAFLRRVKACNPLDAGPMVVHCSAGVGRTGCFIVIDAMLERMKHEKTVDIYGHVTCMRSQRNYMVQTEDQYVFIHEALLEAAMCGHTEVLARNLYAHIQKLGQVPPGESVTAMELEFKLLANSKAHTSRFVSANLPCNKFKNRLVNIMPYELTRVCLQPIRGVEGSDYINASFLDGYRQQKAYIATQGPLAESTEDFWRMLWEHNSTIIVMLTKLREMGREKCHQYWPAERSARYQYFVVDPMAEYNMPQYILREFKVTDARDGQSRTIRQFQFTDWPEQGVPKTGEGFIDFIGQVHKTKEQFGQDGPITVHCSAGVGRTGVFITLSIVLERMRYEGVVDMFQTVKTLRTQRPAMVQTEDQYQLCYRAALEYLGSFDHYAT
As to the kind of experiment: yeast two hybrid interaction system.

For another test, the target named is T2, mPTPσ (mouse) (UniProt B0V2N1).
T2 sequence (looked up): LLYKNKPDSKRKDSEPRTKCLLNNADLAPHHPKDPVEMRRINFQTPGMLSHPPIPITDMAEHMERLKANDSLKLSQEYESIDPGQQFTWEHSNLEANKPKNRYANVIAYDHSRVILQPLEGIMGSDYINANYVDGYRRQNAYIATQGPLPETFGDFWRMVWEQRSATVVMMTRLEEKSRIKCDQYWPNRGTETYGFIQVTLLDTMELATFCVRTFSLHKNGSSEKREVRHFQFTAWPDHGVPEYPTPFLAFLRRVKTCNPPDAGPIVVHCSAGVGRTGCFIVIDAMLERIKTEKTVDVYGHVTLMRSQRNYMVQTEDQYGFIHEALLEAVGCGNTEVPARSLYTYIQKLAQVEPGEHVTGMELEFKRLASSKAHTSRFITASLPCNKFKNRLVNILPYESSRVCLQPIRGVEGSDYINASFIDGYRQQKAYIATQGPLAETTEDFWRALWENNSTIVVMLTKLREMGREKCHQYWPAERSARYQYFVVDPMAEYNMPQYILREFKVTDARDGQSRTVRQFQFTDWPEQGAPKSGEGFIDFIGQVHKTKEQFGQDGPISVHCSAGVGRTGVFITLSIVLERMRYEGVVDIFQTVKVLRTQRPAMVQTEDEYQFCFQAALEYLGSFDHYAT
As to the kind of experiment: yeast two hybrid interaction system.

Take mCkn1 (from UniProt Q6P9K8 476-609): the binding entry with mLAR (mouse) is given as “binds”.
As for mCkn2 (from UniProt Q8VHK1 488-621), the binding result with mLAR (mouse) and in the test with mPTPσ (mouse) was “binds” in each case.
